Results as given in article PMC9077876.
Results are given in words; binding and its absence hold for the method and conditions named. Binding seen in cells or lysates may run through a third protein. Some binding calls cover weakened binding; strength is not graded here.

Sequences of proteins named here, by UniProt entry; tags and fusion partners are left off.
UniProt O15379: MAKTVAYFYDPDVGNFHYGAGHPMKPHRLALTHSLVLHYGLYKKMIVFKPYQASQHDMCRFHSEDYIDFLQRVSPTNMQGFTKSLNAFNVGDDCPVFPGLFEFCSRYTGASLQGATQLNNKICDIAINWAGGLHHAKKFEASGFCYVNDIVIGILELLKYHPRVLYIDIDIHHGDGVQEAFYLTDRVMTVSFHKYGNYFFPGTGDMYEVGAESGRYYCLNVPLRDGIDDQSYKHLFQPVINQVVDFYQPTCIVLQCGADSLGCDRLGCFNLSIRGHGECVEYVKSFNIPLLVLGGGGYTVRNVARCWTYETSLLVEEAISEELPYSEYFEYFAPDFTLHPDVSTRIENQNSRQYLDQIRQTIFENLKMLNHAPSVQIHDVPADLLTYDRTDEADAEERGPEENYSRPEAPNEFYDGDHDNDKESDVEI

Target: T1, CARM1 (human (endogenous in H1299, A549 and PC9)) (UniProt Q86X55)
T1 sequence: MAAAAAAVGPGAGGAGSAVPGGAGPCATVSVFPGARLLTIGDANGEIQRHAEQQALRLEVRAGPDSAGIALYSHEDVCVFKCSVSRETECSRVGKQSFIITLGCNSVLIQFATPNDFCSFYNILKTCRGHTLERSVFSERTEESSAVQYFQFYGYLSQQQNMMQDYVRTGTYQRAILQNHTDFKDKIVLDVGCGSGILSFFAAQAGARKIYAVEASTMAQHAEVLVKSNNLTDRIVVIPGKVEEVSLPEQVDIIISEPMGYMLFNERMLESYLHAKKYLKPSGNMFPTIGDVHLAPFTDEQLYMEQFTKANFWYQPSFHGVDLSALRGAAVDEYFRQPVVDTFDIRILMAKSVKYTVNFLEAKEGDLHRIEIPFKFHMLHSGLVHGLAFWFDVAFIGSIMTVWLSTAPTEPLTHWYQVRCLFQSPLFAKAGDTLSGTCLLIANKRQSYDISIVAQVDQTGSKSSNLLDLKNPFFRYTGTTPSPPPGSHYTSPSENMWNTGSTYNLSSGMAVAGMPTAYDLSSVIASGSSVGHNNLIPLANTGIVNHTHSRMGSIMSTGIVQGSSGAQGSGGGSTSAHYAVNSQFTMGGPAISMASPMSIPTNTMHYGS
Experiment: co-IP; Co-IP in A549 cells to confirm the interaction between CARM1 and HDAC3; which protein was precipitated is not told

- binding: binds
Substance: HDAC3 (from UniProt O15379 1-428)
